Results reported in patent publication US20240226230A1.
No constants are given. Whether binding was seen depends on the method and setting. Some binding calls cover weakened binding; strength is not graded here. For part of these data: Sequences can lack the tags named with a protein.

By UniProt entry, the sequences of proteins in these tests, tags left out. Where a name states a change or a piece, a line headed by the entry shows the natural chain unless it says otherwise. Chains listed by the source or under a name are the forms on record and can include a tag or linker.
UniProt Q13148: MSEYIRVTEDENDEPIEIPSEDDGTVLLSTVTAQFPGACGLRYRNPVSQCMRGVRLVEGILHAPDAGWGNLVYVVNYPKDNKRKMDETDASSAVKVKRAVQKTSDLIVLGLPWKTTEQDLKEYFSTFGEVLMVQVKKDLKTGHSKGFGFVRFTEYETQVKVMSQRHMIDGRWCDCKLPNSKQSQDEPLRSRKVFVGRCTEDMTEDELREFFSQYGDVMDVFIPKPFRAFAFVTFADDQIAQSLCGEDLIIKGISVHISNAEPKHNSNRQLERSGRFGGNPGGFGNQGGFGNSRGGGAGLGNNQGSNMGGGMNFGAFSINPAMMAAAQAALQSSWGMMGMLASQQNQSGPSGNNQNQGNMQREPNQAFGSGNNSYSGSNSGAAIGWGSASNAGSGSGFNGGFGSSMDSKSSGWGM
Nup62-mCherry (P37198, form named): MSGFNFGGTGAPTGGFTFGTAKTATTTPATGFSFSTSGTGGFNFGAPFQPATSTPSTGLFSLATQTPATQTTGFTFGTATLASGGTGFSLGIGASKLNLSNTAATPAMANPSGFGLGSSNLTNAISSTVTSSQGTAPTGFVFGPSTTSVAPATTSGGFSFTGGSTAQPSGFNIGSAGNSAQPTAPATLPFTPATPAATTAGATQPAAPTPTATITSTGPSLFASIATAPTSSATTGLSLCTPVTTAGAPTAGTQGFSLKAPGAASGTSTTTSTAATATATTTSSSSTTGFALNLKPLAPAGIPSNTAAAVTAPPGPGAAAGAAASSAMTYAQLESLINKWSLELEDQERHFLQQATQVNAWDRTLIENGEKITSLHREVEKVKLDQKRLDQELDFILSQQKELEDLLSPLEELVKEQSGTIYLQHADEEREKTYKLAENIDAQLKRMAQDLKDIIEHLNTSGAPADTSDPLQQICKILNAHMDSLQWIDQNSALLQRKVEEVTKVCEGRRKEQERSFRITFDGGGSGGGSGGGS

What was measured:
GFP-TDP-CTF (human) [1] = biological target: GFP-TDP-CTF (human) (UniProt Q13148); experiment: co-localisation by immunofluorescence in HEK293T cells (not a direct binding assay)
GFP-TDP-CTF (human) [2] = biological target: GFP-TDP-CTF (human) (UniProt Q13148); experiment: co-localisation by immunofluorescence in HEK293T cells (FIG. 22E; not a direct binding assay)
Nup62-mCherry [3] = biological target: Nup62-mCherry (UniProt P37198); experiment: co-localisation by immunofluorescence in HEK293T cells (not a direct binding assay)
Nup62-mCherry [4] = biological target: Nup62-mCherry (UniProt P37198); experiment: co-localisation by immunofluorescence in HEK293T cells (FIG. 22G; not a direct binding assay)

binding (GFP-TDP-CTF (human) [1])	binding (GFP-TDP-CTF (human) [2])	binding (Nup62-mCherry [3])	binding (Nup62-mCherry [4])	Binder
binds	binds			mCherry-Nup85 (protein, UniProt Q9BW27 1-656, looked up, not shown: large carriers) MEELDGEPTVTLIPGVNSKKNQMYFDWGPGEMLVCETSFNKKEKSEMVPSCPFIYIIRKDVDVYSQILRKLFNESHGIFLGLQRIDEELTGKSRKSQLVRVSKNYRSVIRACMEEMHQVAIAAKDPANGRQFSSQVSILSAMELIWNLCEILFIEVAPAGPLLLHLLDWVRLHVCEVDSLSADVLGSENPSKHDSFWNLVTILVLQGRLDEARQMLSKEADASPASAGICRIMGDLMRTMPILSPGNTQTLTELELKWQHWHEECERYLQDSTFATSPHLESLLKIMLGDEAALLEQKELLSNWYHFLVTRLLYSNPTVKPIDLHYYAQSSLDLFLGGESSPEPLDNILLAAFEFDIHQVIKECSIALSNWWFVAHLTDLLDHCKLLQSHNLYFGSNMREFLLLEYASGLFAHPSLWQLGVDYFDYCPELGRVSLELHIERIPLNTEQKALKVLRICEQRQMTEQVRSICKILAMKAVRNNRLGSALSWSIRAKDAAFATLVSDRFLRDYCERGCFSDLDLIDNLGPAMMLSDRLTFLGKYREFHRMYGEKRFADAASLLLSLMTSRIAPRSFWMTLLTDALPLLEQKQVIFSAEQTYELMRCLEDLTSRRPVHGESDTEQLQDDDIETTKVEMLRLSLARNLARAIIREGSLEGS
		binds	binds	GFP-RANBP17 (receptor, not shown: large carriers) GGGSGGGSGGGSMALHFQSLAELEVLCTHLYIGTDLTQRIEAEKALLELIDSPECLSKCQLLLEQGTTSYAQLLAATCLSKLVSRVSPLPVEQRMDIRNYILNYVASQPKLAPFVIQALIQVIAKITKLGWFEVQKDQFVFREIIADVKKFLQGTVEHCIIGVIILSELTQEMNLVDYSRPSAKHRKIATSFRDTSLKDVLVLACSLLKEVFAKPLNLQDQCQQNLVMQVLKLVLNCLNFDFIGSSADESADDLCTVQIPTTWRTIFLEPETLDLFFNLYHSLPPLLSQLALSCLVQFASTRRSLFNSPERAKYLGNLIKGVKRILENPQGLSDPGNYHEFCRFLARLKTNYQLGELVMVKEYPEVIRLIANFTITSLQHWEFAPNSVHYLLTLWQRMVASVPFVKSTEPHLLDTYAPEITKAFITSRLDSVAIVVRDHLDDPLDDTATVFQQLEQLCTVSRCEYEKTCALLVQLFDQNAQNYQKLLHPYSGVTVDITIQEGRLAWLVYLVGTVVGGRLTYTSTDEHDAMDGELSCRVFQLISLMDTGLPRCCNEKIELAILWFLDQFRKTYVGDQLQRTSKVYARMSEVLGITDDNHVLETFMTKIVTNLKYWGRYEPVISRTLQFLNDLSVGYILLKKLVKIDAVKFMLKNHTSEHFPFLGISDNHSLSDFRCRTTFYTALTRLLMVDLGEDEDEFENFMLPLTVAFETVLQIFNNNFKQEDVKRMLIGLARDLRGIAFALNTKTSYTMLFDWMYPTYLPLLQNAVERWYGEPTCTTPILKLMAELMQNRSQRLNFDVSSPNGILLFREASKMVCTYGNQILSLGSLSKDQIYPMKLKGISICYSALKSALCGNYVSFGVFKLYGDNHFDNVLQAFVKMLLSVSHSDLLQYRKLSQSYYPLLECLTQDHMSFIINLEPPVLMYVLTSISEGLTTLDTVVSSSCCTSLDYIVTYLFKHIAKEGKKPLRCREATQAGQRLLHFMQQNPDVLQQMMSVLMNTIVFEDCRNQWSVSRPLLGLILLNEKYFSELRASLINSQPLPKQEVLAQCFRNLMEGVEQNLSVKNRDRFTQNLSVFRRDVAEALRSDGNTEPCSLDMMS
		binds	binds	GFP-XPO7 (receptor, not shown: large carriers) GGGSGGGSGGGSMADHVQSLAQLENLCKQLYETTDTTTRLQAEKALVEFTNSPDCLSKCQLLLERGSSSYSQLLAATCLTKLVSRTNNPLPLEQRIDIRNYVLNYLATRPKLATFVTQALIQLYARITKLGWFDCQKDDYVFRNAITDVTRFLQDSVEYCIIGVTILSQLTNEINQADTTHPLTKHRKIASSFRDSSLFDIFTLSCNLLKQASGKNLNLNDESQHGLLMQLLKLTHNCLNFDFIGTSTDESSDDLCTVQIPTSWRSAFLDSSTLQLFFDLYHSIPPSFSPLVLSCLVQIASVRRSLFNNAERAKFLSHLVDGVKRILENPQSLSDPNNYHEFCRLLARLKSNYQLGELVKVENYPEVIRLIANFTVTSLQHWEFAPNSVHYLLSLWQRLAASVPYVKATEPHMLETYTPEVTKAYITSRLESVHIILRDGLEDPLEDTGLVQQQLDQLSTIGRCEYEKTCALLVQLFDQSAQSYQELLQSASASPMDIAVQEGRLTWLVYIIGAVIGGRVSFASTDEQDAMDGELVCRVLQLMNLTDSRLAQAGNEKLELAMLSFFEQFRKIYIGDQVQKSSKLYRRLSEVLGLNDETMVLSVFIGKIITNLKYWGRCEPITSKTLQLLNDLSIGYSSVRKLVKLSAVQFMLNNHTSEHFSFLGINNQSNLTDMRCRTTFYTALGRLLMVDLGEDEDQYEQFMLPLTAAFEAVAQMFSTNSFNEQEAKRTLVGLVRDLRGIAFAFNAKTSFMMLFEWIYPSYMPILQRAIELWYHDPACTTPVLKLMAELVHNRSQRLQFDVSSPNGILLFRETSKMITMYGNRILTLGEVPKDQVYALKLKGISICFSMLKAALSGSYVNFGVFRLYGDDALDNALQTFIKLLLSIPHSDLLDYPKLSQSYYSLLEVLTQDHMNFIASLEPHVIMYILSSISEGLTALDTMVCTGCCSCLDHIVTYLFKQLSRSTKKRTTPLNQESDRFLHIMQQHPEMIQQMLSTVLNIIIFEDCRNQWSMSRPLLGLILLNEKYFSDLRNSIVNSQPPEKQQAMHLCFENLMEGIERNLLTKNRDRFTQNLSAFRREVNDSMKNSTYGVNSNDMMS
